According to article PMC7862700:
The list shows a part of the results, in another mix than the full data. At the low end of the ranking, values are background and their order means little.

target: T1, ELK1 (UniProt P19419); experiment: DAPPL (digital affinity profiling via proximity ligation, sequencing); settings: 10 mM Tris-HCl pH 7.5, 50 mM NaCl, 1 mM DTT, 4% glycerol, room temperature, 30 min; GST-TFs on glutathione beads, 16-mer random dsDNA library, 0.1% …; high values mean tight binding; double strand, one strand shown; scale: fold enrichment (6-mer frequency, TF over GST control)
T1 sequence: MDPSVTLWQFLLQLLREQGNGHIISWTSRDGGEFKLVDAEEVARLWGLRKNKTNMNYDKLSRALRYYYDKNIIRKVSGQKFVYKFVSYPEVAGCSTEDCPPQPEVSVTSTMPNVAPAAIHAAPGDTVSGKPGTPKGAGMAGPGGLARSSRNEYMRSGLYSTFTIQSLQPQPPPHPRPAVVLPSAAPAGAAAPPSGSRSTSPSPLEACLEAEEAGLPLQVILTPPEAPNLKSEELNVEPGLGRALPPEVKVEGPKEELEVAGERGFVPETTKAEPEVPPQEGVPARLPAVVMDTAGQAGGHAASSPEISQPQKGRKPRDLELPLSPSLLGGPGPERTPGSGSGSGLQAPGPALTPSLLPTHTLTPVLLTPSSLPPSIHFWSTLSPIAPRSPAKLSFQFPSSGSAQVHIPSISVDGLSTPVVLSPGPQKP

| Sequence | binding signal |
| --- | --- |
| GGCAGT | 0.53 |
| CCAGTA | 0.676 |
| GGAGGA | 0.226 |
| AACGAG | 0.817 |
| TTCGTG | 0.974 |
| AGACGT | 0.455 |
| GGTGCC | 0.789 |
| GATTGT | 0.878 |
| CGTTGA | 0.767 |
| TCGGGT | 0.606 |
| TGTCGA | 0.824 |
| AGTGGG | 0.644 |
| GTCATG | 0.916 |
| GAGCGA | 0.583 |
| GAGAAG | 0.698 |
| GGAGCC | 0.329 |
| GGGGTT | 0.735 |
| GTGATT | 0.75 |
| ATAGGA | 0.767 |
| GACCAT | 0.918 |

| Sequence | binding signal |
| --- | --- |
| ACAGCG | 0.76 |
| CGGTGC | 0.666 |
| GACAGA | 0.633 |
| GGATTG | 0.829 |
| CGGGAG | 0.202 |
| CCCGAG | 0.884 |
| AGGAGC | 0.401 |
| AGGCAT | 0.883 |
| GGTGCG | 0.627 |
| CAGAGT | 0.608 |
| GTCCGA | 0.79 |
| CAGTAC | 0.841 |
| TGTGGG | 0.882 |
| TGAAGT | 0.803 |
| GGGCGA | 0.867 |
| AGAACG | 0.452 |
| GGCGGC | 0.594 |
| GACTGG | 0.611 |
| GCCAAG | 0.86 |

target: T2, ELK3 (UniProt P41970); experiment: as above; settings: 10 mM Tris-HCl pH 7.5, 50 mM NaCl, 1 mM DTT, 4% glycerol, room temperature, 30 min; GST-TFs on glutathione beads, 16-mer random dsDNA library, 0.1% …; high values mean tight binding; double strand, one strand shown; scale: fold enrichment (6-mer frequency, TF over GST control)
T2 sequence: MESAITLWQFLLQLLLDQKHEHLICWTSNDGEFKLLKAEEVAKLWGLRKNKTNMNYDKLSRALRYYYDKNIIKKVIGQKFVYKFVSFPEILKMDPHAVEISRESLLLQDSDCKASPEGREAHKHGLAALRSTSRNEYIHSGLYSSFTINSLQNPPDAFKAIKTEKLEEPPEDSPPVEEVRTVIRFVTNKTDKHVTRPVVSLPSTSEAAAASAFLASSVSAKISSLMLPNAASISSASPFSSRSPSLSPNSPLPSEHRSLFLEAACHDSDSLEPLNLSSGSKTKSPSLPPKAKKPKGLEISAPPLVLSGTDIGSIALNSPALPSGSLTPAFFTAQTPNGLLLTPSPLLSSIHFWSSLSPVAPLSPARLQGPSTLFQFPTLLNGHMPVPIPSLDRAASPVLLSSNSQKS

| Sequence | binding signal |
| --- | --- |
| GGCAGT | 0.575 |
| CCAGTA | 0.725 |
| GGAGGA | 0.297 |
| AACGAG | 0.84 |
| TTCGTG | 0.839 |
| AGACGT | 0.475 |
| GGTGCC | 0.723 |
| GATTGT | 0.876 |
| CGTTGA | 0.889 |
| TCGGGT | 0.592 |
| TGTCGA | 0.915 |
| AGTGGG | 0.622 |
| GTCATG | 0.819 |
| GAGCGA | 0.642 |
| GAGAAG | 0.722 |
| GGAGCC | 0.308 |
| GGGGTT | 0.947 |
| GTGATT | 0.727 |
| ATAGGA | 0.841 |
| GACCAT | 0.969 |

| Sequence | binding signal |
| --- | --- |
| ACAGCG | 0.858 |
| CGGTGC | 0.627 |
| GACAGA | 0.585 |
| GGATTG | 0.7 |
| CGGGAG | 0.225 |
| CCCGAG | 0.805 |
| AGGAGC | 0.387 |
| AGGCAT | 0.697 |
| GGTGCG | 0.579 |
| CAGAGT | 0.604 |
| GTCCGA | 0.694 |
| CAGTAC | 0.792 |
| TGTGGG | 0.79 |
| TGAAGT | 0.651 |
| GGGCGA | 0.825 |
| AGAACG | 0.523 |
| GGCGGC | 0.574 |
| GACTGG | 0.668 |
| GCCAAG | 0.763 |

target: T3, SPIC (UniProt Q8N5J4); experiment: as above; settings: 10 mM Tris-HCl pH 7.5, 50 mM NaCl, 1 mM DTT, 4% glycerol, room temperature, 30 min; GST-TFs on glutathione beads, 16-mer random dsDNA library, 0.1% …; high values mean tight binding; double strand, one strand shown; scale: fold enrichment (6-mer frequency, TF over GST control)
T3 sequence: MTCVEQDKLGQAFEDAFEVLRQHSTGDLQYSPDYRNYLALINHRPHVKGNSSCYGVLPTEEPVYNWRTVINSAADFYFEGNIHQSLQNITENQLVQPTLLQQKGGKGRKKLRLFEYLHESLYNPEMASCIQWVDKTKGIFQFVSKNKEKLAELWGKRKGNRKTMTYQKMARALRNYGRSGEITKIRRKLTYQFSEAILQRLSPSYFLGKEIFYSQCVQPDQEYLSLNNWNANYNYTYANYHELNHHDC

| Sequence | binding signal |
| --- | --- |
| GGCAGT | 0.521 |
| CCAGTA | 0.623 |
| GGAGGA | 0.278 |
| AACGAG | 0.812 |
| TTCGTG | 0.837 |
| AGACGT | 0.504 |
| GGTGCC | 0.804 |
| GATTGT | 0.787 |
| CGTTGA | 0.786 |
| TCGGGT | 0.61 |
| TGTCGA | 0.737 |
| AGTGGG | 0.759 |
| GTCATG | 0.619 |
| GAGCGA | 0.573 |
| GAGAAG | 0.798 |
| GGAGCC | 0.36 |
| GGGGTT | 0.904 |
| GTGATT | 0.767 |
| ATAGGA | 0.854 |
| GACCAT | 0.763 |

| Sequence | binding signal |
| --- | --- |
| ACAGCG | 0.741 |
| CGGTGC | 0.579 |
| GACAGA | 0.61 |
| GGATTG | 0.883 |
| CGGGAG | 0.186 |
| CCCGAG | 0.663 |
| AGGAGC | 0.416 |
| AGGCAT | 0.792 |
| GGTGCG | 0.455 |
| CAGAGT | 0.617 |
| GTCCGA | 0.869 |
| CAGTAC | 0.793 |
| TGTGGG | 0.923 |
| TGAAGT | 0.805 |
| GGGCGA | 0.821 |
| AGAACG | 0.457 |
| GGCGGC | 0.514 |
| GACTGG | 0.564 |
| GCCAAG | 0.818 |

target: T4, ETS2 (UniProt P15036); experiment: as above; settings: 10 mM Tris-HCl pH 7.5, 50 mM NaCl, 1 mM DTT, 4% glycerol, room temperature, 30 min; GST-TFs on glutathione beads, 16-mer random dsDNA library, 0.1% …; high values mean tight binding; double strand, one strand shown; scale: fold enrichment (6-mer frequency, TF over GST control)
T4 sequence: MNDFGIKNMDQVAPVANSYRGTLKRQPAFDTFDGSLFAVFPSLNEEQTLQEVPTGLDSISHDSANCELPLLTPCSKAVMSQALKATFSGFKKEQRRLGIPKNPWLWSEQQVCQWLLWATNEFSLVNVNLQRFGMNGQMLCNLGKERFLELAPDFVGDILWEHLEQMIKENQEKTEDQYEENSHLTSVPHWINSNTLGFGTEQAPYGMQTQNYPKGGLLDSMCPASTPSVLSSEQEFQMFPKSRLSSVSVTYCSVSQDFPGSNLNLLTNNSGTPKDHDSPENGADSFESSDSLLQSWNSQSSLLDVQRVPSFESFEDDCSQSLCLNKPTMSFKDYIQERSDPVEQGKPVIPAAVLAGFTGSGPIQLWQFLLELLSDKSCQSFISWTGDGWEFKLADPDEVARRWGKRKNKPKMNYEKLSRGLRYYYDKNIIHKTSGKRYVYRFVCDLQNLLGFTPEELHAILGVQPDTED

| Sequence | binding signal |
| --- | --- |
| GGCAGT | 0.504 |
| CCAGTA | 0.66 |
| GGAGGA | 0.246 |
| AACGAG | 0.831 |
| TTCGTG | 0.943 |
| AGACGT | 0.479 |
| GGTGCC | 0.738 |
| GATTGT | 0.845 |
| CGTTGA | 0.745 |
| TCGGGT | 0.605 |
| TGTCGA | 0.805 |
| AGTGGG | 0.67 |
| GTCATG | 0.815 |
| GAGCGA | 0.66 |
| GAGAAG | 0.692 |
| GGAGCC | 0.322 |
| GGGGTT | 0.846 |
| GTGATT | 0.727 |
| ATAGGA | 0.823 |
| GACCAT | 0.848 |

| Sequence | binding signal |
| --- | --- |
| ACAGCG | 0.849 |
| CGGTGC | 0.721 |
| GACAGA | 0.639 |
| GGATTG | 0.884 |
| CGGGAG | 0.206 |
| CCCGAG | 0.86 |
| AGGAGC | 0.384 |
| AGGCAT | 0.857 |
| GGTGCG | 0.653 |
| CAGAGT | 0.652 |
| GTCCGA | 0.91 |
| CAGTAC | 0.759 |
| TGTGGG | 0.913 |
| TGAAGT | 0.765 |
| GGGCGA | 0.784 |
| AGAACG | 0.474 |
| GGCGGC | 0.556 |
| GACTGG | 0.64 |
| GCCAAG | 0.771 |

target: T5, ETV3 (UniProt P41162-2); experiment: as above; settings: 10 mM Tris-HCl pH 7.5, 50 mM NaCl, 1 mM DTT, 4% glycerol, room temperature, 30 min; GST-TFs on glutathione beads, 16-mer random dsDNA library, 0.1% …; high values mean tight binding; double strand, one strand shown; scale: fold enrichment (6-mer frequency, TF over GST control)
T5 sequence: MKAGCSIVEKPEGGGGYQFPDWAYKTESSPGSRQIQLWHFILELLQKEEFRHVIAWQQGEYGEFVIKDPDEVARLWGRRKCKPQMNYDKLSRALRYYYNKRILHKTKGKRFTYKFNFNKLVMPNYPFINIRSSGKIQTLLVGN

| Sequence | binding signal |
| --- | --- |
| GGCAGT | 0.529 |
| CCAGTA | 0.684 |
| GGAGGA | 0.253 |
| AACGAG | 0.809 |
| TTCGTG | 0.934 |
| AGACGT | 0.47 |
| GGTGCC | 0.81 |
| GATTGT | 0.849 |
| CGTTGA | 0.809 |
| TCGGGT | 0.669 |
| TGTCGA | 0.763 |
| AGTGGG | 0.628 |
| GTCATG | 0.845 |
| GAGCGA | 0.674 |
| GAGAAG | 0.691 |
| GGAGCC | 0.319 |
| GGGGTT | 0.951 |
| GTGATT | 0.69 |
| ATAGGA | 0.878 |
| GACCAT | 0.802 |

| Sequence | binding signal |
| --- | --- |
| ACAGCG | 0.754 |
| CGGTGC | 0.731 |
| GACAGA | 0.607 |
| GGATTG | 0.797 |
| CGGGAG | 0.216 |
| CCCGAG | 0.786 |
| AGGAGC | 0.367 |
| AGGCAT | 0.853 |
| GGTGCG | 0.576 |
| CAGAGT | 0.618 |
| GTCCGA | 0.843 |
| CAGTAC | 0.805 |
| TGTGGG | 0.846 |
| TGAAGT | 0.78 |
| GGGCGA | 0.742 |
| AGAACG | 0.431 |
| GGCGGC | 0.59 |
| GACTGG | 0.603 |
| GCCAAG | 0.884 |
